This is an account of results in PMC7604923.

The chains behind the UniProt entries cited, without tags or fusion partners.
UniProt P70227: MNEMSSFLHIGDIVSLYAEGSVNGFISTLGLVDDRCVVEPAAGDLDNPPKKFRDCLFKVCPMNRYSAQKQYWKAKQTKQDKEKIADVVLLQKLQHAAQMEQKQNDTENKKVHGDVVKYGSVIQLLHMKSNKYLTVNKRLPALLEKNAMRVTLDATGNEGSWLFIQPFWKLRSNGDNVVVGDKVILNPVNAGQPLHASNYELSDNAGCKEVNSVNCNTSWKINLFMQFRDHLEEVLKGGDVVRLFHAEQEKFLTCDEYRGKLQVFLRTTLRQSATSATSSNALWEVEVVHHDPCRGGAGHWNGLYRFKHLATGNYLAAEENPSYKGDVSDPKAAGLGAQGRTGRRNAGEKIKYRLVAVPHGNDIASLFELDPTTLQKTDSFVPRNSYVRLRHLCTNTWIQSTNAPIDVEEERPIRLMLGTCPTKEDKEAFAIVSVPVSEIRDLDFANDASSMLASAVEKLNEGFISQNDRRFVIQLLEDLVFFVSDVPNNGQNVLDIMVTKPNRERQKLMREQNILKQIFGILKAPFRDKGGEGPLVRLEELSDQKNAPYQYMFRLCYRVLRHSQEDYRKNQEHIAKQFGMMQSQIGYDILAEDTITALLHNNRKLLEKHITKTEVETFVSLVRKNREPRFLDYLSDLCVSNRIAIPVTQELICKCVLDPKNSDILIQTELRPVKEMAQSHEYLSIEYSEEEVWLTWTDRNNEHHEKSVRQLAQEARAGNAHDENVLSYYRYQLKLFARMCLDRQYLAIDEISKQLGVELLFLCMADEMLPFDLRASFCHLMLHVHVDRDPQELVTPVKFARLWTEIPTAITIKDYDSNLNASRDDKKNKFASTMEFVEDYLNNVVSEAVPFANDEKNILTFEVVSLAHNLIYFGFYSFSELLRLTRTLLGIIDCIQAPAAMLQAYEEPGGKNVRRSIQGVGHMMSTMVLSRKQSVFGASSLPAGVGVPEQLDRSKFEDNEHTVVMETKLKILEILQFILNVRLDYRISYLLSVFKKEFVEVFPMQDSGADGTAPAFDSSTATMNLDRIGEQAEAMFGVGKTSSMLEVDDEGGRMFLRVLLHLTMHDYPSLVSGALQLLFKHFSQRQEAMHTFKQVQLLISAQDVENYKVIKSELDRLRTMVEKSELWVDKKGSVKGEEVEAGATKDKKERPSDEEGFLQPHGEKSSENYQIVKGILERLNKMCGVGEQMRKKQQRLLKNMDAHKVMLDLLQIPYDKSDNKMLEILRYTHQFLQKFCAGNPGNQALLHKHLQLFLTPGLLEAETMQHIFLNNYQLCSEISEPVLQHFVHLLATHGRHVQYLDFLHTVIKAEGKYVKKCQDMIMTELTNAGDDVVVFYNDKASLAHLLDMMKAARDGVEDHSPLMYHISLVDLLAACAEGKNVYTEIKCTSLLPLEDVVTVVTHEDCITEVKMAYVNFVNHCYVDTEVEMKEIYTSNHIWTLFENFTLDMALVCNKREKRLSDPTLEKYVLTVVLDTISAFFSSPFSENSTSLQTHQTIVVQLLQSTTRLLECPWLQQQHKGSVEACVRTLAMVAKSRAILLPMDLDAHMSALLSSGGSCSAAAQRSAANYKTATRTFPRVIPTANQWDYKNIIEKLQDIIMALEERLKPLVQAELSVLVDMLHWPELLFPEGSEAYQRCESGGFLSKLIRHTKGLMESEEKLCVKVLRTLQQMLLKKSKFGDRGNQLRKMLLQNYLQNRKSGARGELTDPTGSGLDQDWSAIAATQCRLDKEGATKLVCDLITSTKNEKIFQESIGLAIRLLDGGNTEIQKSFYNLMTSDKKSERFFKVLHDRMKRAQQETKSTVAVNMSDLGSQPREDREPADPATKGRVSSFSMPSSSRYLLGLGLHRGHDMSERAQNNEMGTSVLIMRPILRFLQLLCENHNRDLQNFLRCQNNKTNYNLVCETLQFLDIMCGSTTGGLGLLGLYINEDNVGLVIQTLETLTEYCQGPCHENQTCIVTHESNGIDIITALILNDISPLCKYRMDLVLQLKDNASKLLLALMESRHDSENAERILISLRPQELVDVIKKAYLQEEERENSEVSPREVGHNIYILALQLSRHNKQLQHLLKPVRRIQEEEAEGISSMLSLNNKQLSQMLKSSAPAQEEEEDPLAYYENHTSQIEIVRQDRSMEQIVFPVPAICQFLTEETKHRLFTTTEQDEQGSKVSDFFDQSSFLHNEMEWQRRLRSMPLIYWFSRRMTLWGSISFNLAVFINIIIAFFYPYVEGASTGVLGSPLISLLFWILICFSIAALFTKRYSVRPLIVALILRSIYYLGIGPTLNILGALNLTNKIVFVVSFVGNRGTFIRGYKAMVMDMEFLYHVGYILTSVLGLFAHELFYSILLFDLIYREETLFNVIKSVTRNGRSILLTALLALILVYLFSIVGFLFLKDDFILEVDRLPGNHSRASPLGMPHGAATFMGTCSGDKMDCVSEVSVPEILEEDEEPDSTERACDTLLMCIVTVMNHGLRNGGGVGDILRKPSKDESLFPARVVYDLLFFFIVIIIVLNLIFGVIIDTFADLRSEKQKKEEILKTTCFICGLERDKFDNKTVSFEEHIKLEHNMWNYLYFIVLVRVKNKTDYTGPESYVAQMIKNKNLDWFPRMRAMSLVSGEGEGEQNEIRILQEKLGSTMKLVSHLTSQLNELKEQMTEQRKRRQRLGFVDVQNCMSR
UniProt Q9D4H1: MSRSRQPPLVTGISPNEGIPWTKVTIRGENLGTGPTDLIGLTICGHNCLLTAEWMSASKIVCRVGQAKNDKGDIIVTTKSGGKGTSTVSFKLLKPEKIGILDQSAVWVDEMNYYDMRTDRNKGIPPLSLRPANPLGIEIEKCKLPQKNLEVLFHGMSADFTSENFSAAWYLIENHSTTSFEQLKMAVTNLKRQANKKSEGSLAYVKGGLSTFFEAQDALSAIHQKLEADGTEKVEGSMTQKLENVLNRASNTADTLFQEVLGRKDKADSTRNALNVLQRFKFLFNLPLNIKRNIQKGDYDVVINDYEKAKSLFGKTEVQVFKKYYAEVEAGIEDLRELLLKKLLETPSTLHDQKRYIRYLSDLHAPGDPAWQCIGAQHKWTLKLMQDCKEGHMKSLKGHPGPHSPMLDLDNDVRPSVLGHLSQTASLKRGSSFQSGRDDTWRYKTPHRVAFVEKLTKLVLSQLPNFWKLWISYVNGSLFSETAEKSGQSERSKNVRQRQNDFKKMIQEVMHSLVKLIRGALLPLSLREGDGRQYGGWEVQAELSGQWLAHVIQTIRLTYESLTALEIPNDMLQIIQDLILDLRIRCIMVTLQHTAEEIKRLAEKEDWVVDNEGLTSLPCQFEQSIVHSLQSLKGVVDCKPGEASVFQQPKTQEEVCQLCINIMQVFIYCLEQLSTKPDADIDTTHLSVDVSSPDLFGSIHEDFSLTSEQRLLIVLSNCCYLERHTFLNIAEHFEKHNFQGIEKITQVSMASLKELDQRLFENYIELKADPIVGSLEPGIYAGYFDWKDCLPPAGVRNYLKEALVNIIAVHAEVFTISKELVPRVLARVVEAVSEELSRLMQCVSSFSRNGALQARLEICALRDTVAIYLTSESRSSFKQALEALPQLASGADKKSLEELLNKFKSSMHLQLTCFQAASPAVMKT

The test has as its target InsP3R3 (mouse (endogenous in RAW264.7)) (UniProt P70227). Description: co-IP; RAW264.7 cell lysates immunoprecipitated with control rabbit IgG, anti-SEC5 or anti-InsP3R3 antibody; western blotting. On the technique in general: In western blotting, separated proteins are transferred to a membrane and probed.

Results are given in words; binding and its absence hold for the method and conditions named. In cells and extracts the contact can be indirect. Some results given as binding are weak or reduced against the parent protein; the word gives no strength.

In the case of SEC5 (from UniProt Q9D4H1 1-924), the binding entry was “binds”.
